Among the data in PubChem BioAssay AID179 (DTP/NCI, 2004) are outcome, EC50 and IC50 values, retold here.

The test system of this experiment is CEM cells HIV-1 protection, formazan growth assay. As to the kind of experiment: NCI AIDS Antiviral Assay. In short, it runs like this: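 Protection of CEM cells against HIV-1 measured as cell growth via soluble formazan read-out, with five concentrations tested on both infected and uninfected cells; failure to protect may reflect toxicity.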

Active and inactive are the calls of the source.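 The calls were made as follows: active = compounds giving half or more protection of infected cells from virus-caused growth loss, again on retest; inactive = the rest.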

Turning to `COc1c(O)cc2c(c1OC)-c1ccc(SC)c(=O)cc1C(NC=O)CC2` (stereo not drawn), the outcome was inactive.

As a reminder, the EC50 is the midpoint of the concentration-response curve. As a reminder, the IC50 is the concentration that inhibits the measured activity by half. With `CCCCOC(=O)Oc1cc2c(c(OC)c1OC)-c1ccc(SC)c(=O)cc1[C@@H](NC(C)=O)CC2`, the EC50 was greater than 72400 nM. Moreover, the IC50 (measured here: growth of uninfected CEM cells) was determined as 22.9 nM.
